These results are taken from publication doi:10.1101/2025.09.09.675186.

Assay [1] has as its target T1, IRF7, endogenous in mouse bone marrow-derived macrophages (mouse (endogenous in BMDMs)) (UniProt P70434).
T1 sequence: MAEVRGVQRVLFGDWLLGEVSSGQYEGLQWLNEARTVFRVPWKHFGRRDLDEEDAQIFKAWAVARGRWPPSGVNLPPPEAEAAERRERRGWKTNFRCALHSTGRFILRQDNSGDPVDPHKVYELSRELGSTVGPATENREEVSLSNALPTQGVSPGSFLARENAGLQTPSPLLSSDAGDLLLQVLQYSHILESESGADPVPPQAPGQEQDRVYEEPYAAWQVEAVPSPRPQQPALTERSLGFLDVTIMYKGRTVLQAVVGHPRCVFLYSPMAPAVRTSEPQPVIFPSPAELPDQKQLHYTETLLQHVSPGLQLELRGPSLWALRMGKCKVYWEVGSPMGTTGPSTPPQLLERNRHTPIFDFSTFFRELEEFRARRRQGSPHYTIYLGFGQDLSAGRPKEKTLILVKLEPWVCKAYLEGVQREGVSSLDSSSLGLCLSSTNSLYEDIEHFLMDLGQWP
The assay can be described thus: proximity ligation.

Assay [2] concerns the target T2, V5-tagged IRF7 (IFN regulatory factor 7), stably expressed in IRF3-knockout HEK293T cells (HEK-KO.IRF7) (mouse) (UniProt P70434).
T2 sequence: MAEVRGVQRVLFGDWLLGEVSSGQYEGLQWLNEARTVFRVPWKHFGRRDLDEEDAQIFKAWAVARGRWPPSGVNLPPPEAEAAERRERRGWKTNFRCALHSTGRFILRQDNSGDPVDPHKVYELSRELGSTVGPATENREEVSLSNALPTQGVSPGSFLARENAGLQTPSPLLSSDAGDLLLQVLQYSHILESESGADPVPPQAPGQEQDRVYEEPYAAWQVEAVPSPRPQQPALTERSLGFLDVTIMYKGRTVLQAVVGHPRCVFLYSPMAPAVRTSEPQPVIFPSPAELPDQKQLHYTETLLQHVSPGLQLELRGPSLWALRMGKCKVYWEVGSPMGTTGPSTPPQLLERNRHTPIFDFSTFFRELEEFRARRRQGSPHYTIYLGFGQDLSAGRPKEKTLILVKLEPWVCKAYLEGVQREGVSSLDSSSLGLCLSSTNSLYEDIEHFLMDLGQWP
The assay can be described thus: co-IP.

No constants are given. Whether binding was seen depends on the method and setting. In cells and extracts the contact can be indirect. Some results given as binding are weak or reduced against the parent protein; the word gives no strength. For part of these data: Where a sequence is shown, tags or fusion partners need not be part of it.

B1: OTUD5, endogenous in mouse bone marrow-derived macrophages (enzyme, UniProt Q3U2S4 1-566)
chain: MTILPKKKPPPPDADPANEPPPPGPLPPAPRRGAGVGVGGGGTGVGGGERDRDSGVVGARPRASPPPQGPLPGPPGALHRWALAVPPGAVAGPRPQQASPPPCGGPGGPGGGPGDALGATTAGVGAAGVVVGVGGTVGVGGCCSGPGHSKRRRQAPGVGAVGGASPEREEVGAGYNSEDEYEAAAARIEAMDPATVEQQEHWFEKALRDKKGFIIKQMKEDGACLFRAVADQVYGDQDMHEVVRKHCMDYLMKNADYFSNYVTEDFTTYINRKRKNNCHGNHIEMQAMAEMYNRPVEVYQYSTEPINTFHGIHQNEDEPIRVSYHRNIHYNSVVNPNKATIGVGLGLPSFKPGFAEQSLMKNAIKTSEESWIEQQMLEDKKRATDWEATNEAIEEQVARESYLQWLRDQEKQARQVRGPSQPRKASATCSSATAAASSGLEEWTSRSPRQRSSASSPEHPELHAELGIKPPSPGTVLALAKPPSPCAPGTSSQFSAGGDRATSPLVSLYPALECRALIQQMSPSAFGLNDWDDDEILASVLAVSQQEYLDSMKKNKVHREPPPDKS
Turning to B1, the binding result in assay [1] is listed as “binds”.

B2: USP2, endogenous in mouse bone marrow-derived macrophages (enzyme, UniProt O88623 1-619)
chain: MSQLSSTLKRYTESSRYTDAPYAKPGYGTYTPSSYGANLAASFLEKEKLGFKPVSPTSFLPRPRTYGPSSILDCDRGRPLLRSDIIGSSKRSESQTRGNERPSGSGLNGGSGFSYGVSSNSLSYLPMNARDQGVTLSQKKSNSQSDLARDFSSLRTSDGYRTSDGYRTSEGFRIDPGNLGRSPMLARTRKELCALQGLYQAASRSEYLTDYLENYGRKGSAPQVLTQAPPPSRVPEVLSPTYRPSGRYTLWEKSKGQASGPSRSSSPGRDTMNSKSAQGLAGLRNLGNTCFMNSILQCLSNTRELRDYCLQRLYMRDLGHTSSAHTALMEEFAKLIQTIWTSSPNDVVSPSEFKTQIQRYAPRFMGYNQQDAQEFLRFLLDGLHNEVNRVAARPKASPETLDHLPDEEKGRQMWRKYLEREDSRIGDLFVGQLKSSLTCTDCGYCSTVFDPFWDLSLPIAKRGYPEVTLMDCMRLFTKEDILDGDEKPTCCRCRARKRCIKKFSVQRFPKILVLHLKRFSESRIRTSKLTTFVNFPLRDLDLREFASENTNHAVYNLYAVSNHSGTTMGGHYTAYCRSPVTGEWHTFNDSSVTPMSSSQVRTSDAYLLFYELASPPSRM
Turning to B2, the binding entry in assay [1] is reported as “binds”.

B3: OTUD5 in HEK-KO.IRF7 cells (enzyme, UniProt Q96G74 1-571)
chain: MTILPKKKPPPPDADPANEPPPPGPMPPAPRRGGGVGVGGGGTGVGGGDRDRDSGVVGARPRASPPPQGPLPGPPGALHRWALAVPPGAVAGPRPQQASPPPCGGPGGPGGGPGDALGAAAAGVGAAGVVVGVGGAVGVGGCCSGPGHSKRRRQAPGVGAVGGGSPEREEVGAGYNSEDEYEAAAARIEAMDPATVEQQEHWFEKALRDKKGFIIKQMKEDGACLFRAVADQVYGDQDMHEVVRKHCMDYLMKNADYFSNYVTEDFTTYINRKRKNNCHGNHIEMQAMAEMYNRPVEVYQYSTGTSAVEPINTFHGIHQNEDEPIRVSYHRNIHYNSVVNPNKATIGVGLGLPSFKPGFAEQSLMKNAIKTSEESWIEQQMLEDKKRATDWEATNEAIEEQVARESYLQWLRDQEKQARQVRGPSQPRKASATCSSATAAASSGLEEWTSRSPRQRSSASSPEHPELHAELGMKPPSPGTVLALAKPPSPCAPGTSSQFSAGADRATSPLVSLYPALECRALIQQMSPSAFGLNDWDDDEILASVLAVSQQEYLDSMKKNKVHRDPPPDKS
B3: the binding result in assay [2] is on record as “binds”.
